Laboratory results taken from article PMC11655347.
These are yes or no findings as the source states them, for the method shown. In cells and extracts the contact can be indirect. Some binding calls cover weakened binding; strength is not graded here.

By UniProt entry, the sequences of proteins in these tests, tags left out.
UniProt Q15910: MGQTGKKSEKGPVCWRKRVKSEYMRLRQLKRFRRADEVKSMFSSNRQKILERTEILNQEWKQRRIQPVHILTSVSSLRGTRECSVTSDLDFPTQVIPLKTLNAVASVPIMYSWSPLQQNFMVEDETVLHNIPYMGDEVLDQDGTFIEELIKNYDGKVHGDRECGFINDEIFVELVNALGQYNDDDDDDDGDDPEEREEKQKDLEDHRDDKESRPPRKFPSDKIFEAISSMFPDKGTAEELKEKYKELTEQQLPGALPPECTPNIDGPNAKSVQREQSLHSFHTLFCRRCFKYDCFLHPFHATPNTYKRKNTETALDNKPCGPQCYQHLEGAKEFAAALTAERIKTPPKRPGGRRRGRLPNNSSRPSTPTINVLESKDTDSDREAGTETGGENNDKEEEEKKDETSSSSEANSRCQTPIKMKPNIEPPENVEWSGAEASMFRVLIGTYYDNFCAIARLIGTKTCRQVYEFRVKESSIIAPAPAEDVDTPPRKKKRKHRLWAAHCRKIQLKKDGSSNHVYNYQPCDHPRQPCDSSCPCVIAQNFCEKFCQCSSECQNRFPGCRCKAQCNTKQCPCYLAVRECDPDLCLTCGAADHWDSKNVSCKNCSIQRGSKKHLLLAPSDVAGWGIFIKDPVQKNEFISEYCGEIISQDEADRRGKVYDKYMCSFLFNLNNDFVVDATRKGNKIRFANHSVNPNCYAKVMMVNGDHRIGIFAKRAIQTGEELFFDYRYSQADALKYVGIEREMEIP
UniProt O75530: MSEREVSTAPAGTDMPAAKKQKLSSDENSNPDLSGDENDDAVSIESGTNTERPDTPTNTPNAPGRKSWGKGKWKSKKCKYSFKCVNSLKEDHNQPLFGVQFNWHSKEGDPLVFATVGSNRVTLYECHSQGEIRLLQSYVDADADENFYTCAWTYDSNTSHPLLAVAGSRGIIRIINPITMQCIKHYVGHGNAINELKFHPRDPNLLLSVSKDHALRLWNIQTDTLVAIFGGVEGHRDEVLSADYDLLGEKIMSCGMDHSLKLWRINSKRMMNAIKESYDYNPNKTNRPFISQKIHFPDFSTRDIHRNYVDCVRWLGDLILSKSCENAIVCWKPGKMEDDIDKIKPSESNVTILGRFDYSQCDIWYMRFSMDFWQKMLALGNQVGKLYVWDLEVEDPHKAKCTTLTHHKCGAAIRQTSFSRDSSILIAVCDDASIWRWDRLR
UniProt Q6PIY5: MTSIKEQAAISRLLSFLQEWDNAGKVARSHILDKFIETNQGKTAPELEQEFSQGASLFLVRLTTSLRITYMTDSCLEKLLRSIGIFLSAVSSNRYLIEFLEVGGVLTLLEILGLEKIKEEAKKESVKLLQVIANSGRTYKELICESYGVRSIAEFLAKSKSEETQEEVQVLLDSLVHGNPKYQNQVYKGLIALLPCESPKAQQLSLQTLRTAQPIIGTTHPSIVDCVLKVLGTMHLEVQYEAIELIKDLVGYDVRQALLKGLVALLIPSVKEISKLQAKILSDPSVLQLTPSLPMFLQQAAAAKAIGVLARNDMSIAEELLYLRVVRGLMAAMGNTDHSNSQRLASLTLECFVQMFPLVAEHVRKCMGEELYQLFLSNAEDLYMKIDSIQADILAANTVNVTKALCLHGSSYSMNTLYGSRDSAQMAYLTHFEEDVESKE

Experiments:
[1] = target: enhancer of zeste homolog 2 (EZH2) (human (endogenous in MOLM14 and Kasumi-1)) (UniProt Q15910); test: co-IP; endogenous proteins from MOLM14 and Kasumi-1 cell extracts; EZH2 or EED antibody on protein G, incubated with pre-cleared lysate in RIPA buffer overnight at 4C, washed twice with cold PBS; western blot with EZH2, EED and ARMH1 antibodies
[2] = target: Embryonic Ectoderm Development (EED) (human (endogenous in MOLM14 and Kasumi-1)) (UniProt O75530); test: as above

binding [1]: binds
binding [2]: binds
Substance: Armadillo-like helical domain containing protein 1 (ARMH1) (from UniProt Q6PIY5 1-440)
